The supplement of paper PMC10331698
± gives the standard deviation of the averaged measurements. Small differences around the control level are noise.

What was measured:
Test in all cases: level (log10 ratio to DMSO vehicle control); higher = higher biomarker level / cell amount than vehicle control
[1] = compound: OCCC(F)(F)C(F)(F)C(F)(F)C(F)(F)C(F)(F)C(F)(F)C(F)(F)C(F)(F)F [8:2 Fluorotelomer alcohol]; settings: 2200 nM; in DMSO
Procedure: (§1)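 BioMAP Diversity Plus panel of 12 human primary cell co-culture systems (3C, 4H, LPS, SAg, BT, BF4T, BE3C, CASM3C, HDF3CGF, KF3CT, MyoF, Mphg). Compounds were added 1 h before stimulation and left for 24 h (MyoF 48 h; BT 72 h for soluble read-outs or 6 d for IgG). Biomarkers were read by ELISA, cytotoxicity by SRB, PBMC viability and proliferation by Alamar Blue. Each well value was divided by the mean of 8 DMSO control wells on the same plate and log10 transformed; duplicate blinded samples were tested at 4 concentrations.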

[2] = compound: FC(F)(F)C(F)(F)C(F)(F)C(F)(F)C(F)(F)C(F)(F)C(F)(F)CCI [1-Iodo-1H,1H,2H,2H-perfluorononane]; settings: in DMSO
Procedure: as §1

[3] = compound: O=C(O)C(F)(F)OC(F)(F)C(F)(F)OC(F)(F)C(=O)O [Perfluoro-3,6-dioxaoctane-1,8-dioic acid]; settings: 2200 nM; in DMSO
Procedure: as §1

[4] = compound: O=C(O)C=CC(F)(C(F)(F)F)C(F)(F)F [3-(Perfluoroisopropyl)-2-propenoic acid]; settings: in DMSO
Procedure: as §1

[5] = compound: NC(=O)C(F)(F)C(F)(F)C(F)(F)C(F)(F)C(F)(F)C(F)(F)C(F)(F)F [Perfluorooctanamide]; settings: 2200 nM; in DMSO
Procedure: as §1

[6] = compound: O=C(O)C(F)(F)C(F)(F)C(F)(F)F [Perfluorobutanoic acid]; settings: 2200 nM; in DMSO
Procedure: as §1

[7] = compound: O=C(O)C(F)(F)C(F)(F)C(F)(F)C(F)(F)C(F)(F)C(F)(F)C(F)(F)C(F)(F)C(F)(F)C(F)(F)F [Perfluoroundecanoic acid]; settings: in DMSO
Procedure: as §1

[8] = compound: O=C(O)C(F)(F)OC(F)(F)C(F)(F)OC(F)(F)C(F)(F)C(F)(F)C(F)(F)F [Perfluoro-3,6-dioxadecanoic acid]; settings: 2200 nM; in DMSO
Procedure: as §1

[9] = compound: FC(F)C(F)(F)COCC1CO1 [((2,2,3,3-Tetrafluoropropoxy)methyl)oxirane]; settings: 2200 nM; in DMSO
Procedure: as §1

[10] = compound: FC(F)(F)C(F)(F)C(F)(F)C(F)(F)C(F)(F)C(F)(F)C(F)(F)I [1-Iodopentadecafluoroheptane]; settings: in DMSO
Procedure: as §1

[11] = compound: O=S(=O)(Cl)C(F)(F)C(F)(F)C(F)(F)C(F)(F)C(F)(F)C(F)(F)C(F)(F)C(F)(F)F [Perfluoro-1-octanesulfonyl chloride]; settings: 2200 nM; in DMSO
Procedure: as §1

[12] = compound: O=P(O)(O)CCC(F)(F)C(F)(F)C(F)(F)C(F)(F)C(F)(F)C(F)(F)C(F)(F)C(F)(F)F [((Perfluorooctyl)ethyl)phosphonic acid]; settings: 2200 nM; in DMSO
Procedure: as §1

[13] = compound: O=C(O)C(F)(F)C(F)(F)OC(F)(F)F [Perfluoro-3-methoxypropanoic acid]; settings: 2200 nM; in DMSO
Procedure: as §1

[14] = compound: O=C(O)C(F)(F)C(F)(F)C(F)(F)C(F)(F)C(F)(F)C(F)(F)C(F)(F)C(F)F [9-H-Perfluorononanoic acid]; settings: 2200 nM; in DMSO
Procedure: as §1

[15] = compound: C=CC(=O)OCC(F)(F)C(F)(F)C(F)(F)C(F)(F)COC(=O)C=C [1H,1H,6H,6H-Perfluorohexane-1,6-diol diacrylate]; settings: 2200 nM; in DMSO
Procedure: as §1

[16] = compound: OCC(F)(F)C(F)(F)C(F)(F)C(F)(F)C(F)(F)C(F)(F)C(F)(F)C(F)(F)C(F)(F)C(F)(F)C(F)(F)F [11:1 Fluorotelomer alcohol]; settings: in DMSO
Procedure: as §1

[17] = compound: O=C(O)C(F)(F)C(F)(F)F [Perfluoropropanoic acid]; settings: 2200 nM; in DMSO
Procedure: as §1

[18] = compound: C=C(C)C(=O)OCC(F)(F)C(F)(F)C(F)(F)F [2,2,3,3,4,4,4-Heptafluorobutyl methacrylate]; settings: 2200 nM; in DMSO
Procedure: as §1

| Test System | level (log10) [1] | level (log10) ([2]; 740 nM) | level (log10) ([2]; 2200 nM) | level (log10) ([2]; 6700 nM) | level (log10) ([2]; 20000 nM) | level (log10) [3] | level (log10) ([4]; 2200 nM) | level (log10) ([4]; 6700 nM) | level (log10) ([4]; 20000 nM) | level (log10) ([4]; 60000 nM) | level (log10) [5] | level (log10) [6] | level (log10) ([7]; 740 nM) | level (log10) ([7]; 2200 nM) | level (log10) [8] | level (log10) [9] | level (log10) ([10]; 740 nM) | level (log10) ([10]; 2200 nM) | level (log10) ([10]; 6700 nM) | level (log10) ([10]; 20000 nM) | level (log10) [11] | level (log10) [12] | level (log10) [13] | level (log10) [14] | level (log10) [15] | level (log10) ([16]; 370 nM) | level (log10) ([16]; 1100 nM) | level (log10) ([16]; 3300 nM) | level (log10) ([16]; 10000 nM) | level (log10) [17] | level (log10) [18] |
| --- | --- | --- | --- | --- | --- | --- | --- | --- | --- | --- | --- | --- | --- | --- | --- | --- | --- | --- | --- | --- | --- | --- | --- | --- | --- | --- | --- | --- | --- | --- | --- |
| CASM3C:CXCL8/IL-8 | -0.0055 ± 0.023 | 0.0055 ± 0.00071 | 0.004 ± 0.0042 | 0.004 ± 0.0042 | 0.004 ± 0.0028 | 0.0365 ± 0.076 | 0.0215 ± 0.053 | 0.008 ± 0.025 | 0.0025 ± 0.016 | 0.0225 ± 0.0021 | 0.0295 ± 0.036 | -0.003 ± 0.016 | 0.019 ± 0.04 | 0.0075 ± 0.011 | 0.0065 ± 0.005 | 0.0095 ± 0.0064 | 0.0055 ± 0.028 | -0.002 ± 0.016 | -0.0165 ± 0.016 | 0.001 ± 0.017 | -0.016 | 0.01 ± 0.018 | 0.0315 ± 0.077 | 0.0005 ± 0.0078 | 0.0095 ± 0.0078 | -0.0135 ± 0.0078 | -0.0025 ± 0.0035 | -0.006 | -0.007 ± 0.064 | -0.0045 ± 0.03 | 0.0055 ± 0.04 |
| BE3C:uPA | -0.007 ± 0.016 | 0.0005 ± 0.033 | -0.014 ± 0.035 | 0.003 ± 0.033 | -0.0125 ± 0.015 | -0.0035 ± 0.023 | 0.005 ± 0.0071 | -0.0045 ± 0.005 | -0.001 ± 0.0057 | 0.0045 ± 0.0021 | -0.0035 ± 0.0035 | 0.0215 ± 0.018 | 0.0015 ± 0.016 | -0.006 ± 0.0014 | 0.004 ± 0.027 | 0.0025 ± 0.022 | 0.0015 ± 0.0021 | -0.005 ± 0.0099 | -0.0135 ± 0.0035 | -0.009 ± 0.0099 | 0.0015 ± 0.012 | 0.0045 ± 0.016 | 0.0005 ± 0.013 | 0.0025 ± 0.00071 | -0.001 ± 0.013 | -0.0165 ± 0.022 | -0.0155 ± 0.013 | -0.0405 ± 0.0078 | -0.0175 ± 0.0035 | -0.0035 ± 0.046 | -0.0095 ± 0.029 |
| MyoF:Collagen IV | 0.004 ± 0.0028 | 0.03 ± 0.016 | 0.03 ± 0.0057 | 0.027 ± 0.0042 | 0.082 ± 0.018 | -0.0065 ± 0.035 | 0.018 ± 0.058 | -0.01 ± 0.023 | 0.0025 ± 0.0078 | 0.0205 ± 0.022 | -0.0155 ± 0.069 | 0.0085 ± 0.074 | 0.036 ± 0.031 | 0.0705 ± 0.053 | 0.0165 ± 0.0092 | 0.0075 ± 0.011 | 0.0675 ± 0.0035 | 0.0315 ± 0.081 | 0.0705 ± 0.049 | 0.279 ± 0.09 | 0.001 ± 0.0071 | -0.0025 ± 0.037 | -0.008 ± 0.031 | 0.061 ± 0.065 | -0.0135 ± 0.043 | -0.0405 ± 0.029 | -0.0365 ± 0.05 | -0.0255 ± 0.028 | -0.01 ± 0.028 | 0.02 ± 0.033 | -0.001 ± 0.03 |
| LPS:CD40 | -0.0395 ± 0.0035 | 0.033 ± 0.048 | -0.008 ± 0.042 | -0.0105 ± 0.019 | 0.034 ± 0.025 | 0.001 ± 0.011 | -0.0295 ± 0.013 | -0.008 ± 0.0085 | 0.008 ± 0.048 | -0.017 ± 0.079 | -0.0185 ± 0.042 | -0.006 ± 0.017 | -0.0015 ± 0.064 | -0.0205 ± 0.047 | -0.0335 ± 0.032 | -0.0095 ± 0.025 | 0.0415 ± 0.066 | 0.0125 ± 0.067 | 0.0645 ± 0.11 | -0.006 ± 0.15 | -0.014 ± 0.076 | -0.0685 ± 0.07 | 0.0185 ± 0.0035 | -0.0275 ± 0.021 | -0.038 ± 0.0071 | 0.0635 ± 0.032 | 0.0305 ± 0.028 | 0.0205 ± 0.0035 | -0.0275 ± 0.00071 | 0.003 ± 0.027 | -0.0465 ± 0.097 |
